Laboratory results: PubChem BioAssay AID1224830 (NIAID, 2016)
Assay: 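Host factors that control LPS-induced TNF expression in human macrophages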 (primary screen). System: human THP-1 monocytic leukaemia cells, TNF dual-luciferase reporter clone, PMA-differentiated to macrophage-like cells. Knock-down reagent: siRNA pool against human genes, 50 nM. Duration: LPS for 4 h, given about 3 days after siRNA transfection. Treatment: bacterial LPS (TLR4 ligand), 10 ng/ml. Measured: 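TNF firefly reporter luminescence divided by renilla, normalised to the plate median, then turned into a robust z-score for each replicate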. Direction: TNF reporter robust z-score: higher = stronger TNF reporter response to LPS. Call rule: 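a well is active when its z-score exceeds 2.8 or falls below -1.5; control wells carry no call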.
Here is an unselected part of about 18,000 reagents. About 2,900 of them (16%) were called active. 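Calls are made per well; low scores hint the gene aids the LPS response, high scores that it dampens it.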 Repeated entries: four replicate wells of each siRNA pool. No sequences are given here.

{"target":"IVL","TNF reporter robust z-score":0.03,"activity call":"inactive"}
{"target":"IVL","TNF reporter robust z-score":-0.15,"activity call":"inactive"}
{"target":"IVL","TNF reporter robust z-score":0.34,"activity call":"inactive"}
{"target":"IVL","TNF reporter robust z-score":0.68,"activity call":"inactive"}
{"target":"PLA2G2A","TNF reporter robust z-score":-0.41,"activity call":"inactive"}
{"target":"PLA2G2A","TNF reporter robust z-score":-0.06,"activity call":"inactive"}
{"target":"PLA2G2A","TNF reporter robust z-score":-0.69,"activity call":"inactive"}
{"target":"PLA2G2A","TNF reporter robust z-score":0.51,"activity call":"inactive"}
{"target":"TPK1","TNF reporter robust z-score":-0.33,"activity call":"inactive"}
{"target":"TPK1","TNF reporter robust z-score":0.83,"activity call":"inactive"}
{"target":"TPK1","TNF reporter robust z-score":-0.22,"activity call":"inactive"}
{"target":"TPK1","TNF reporter robust z-score":-0.5,"activity call":"inactive"}
{"target":"ASB2","TNF reporter robust z-score":0.81,"activity call":"inactive"}
{"target":"ASB2","TNF reporter robust z-score":-0.99,"activity call":"inactive"}
{"target":"ASB2","TNF reporter robust z-score":1.56,"activity call":"inactive"}
{"target":"ASB2","TNF reporter robust z-score":0.18,"activity call":"inactive"}
{"target":"SRA1","TNF reporter robust z-score":-0.12,"activity call":"inactive"}
{"target":"SRA1","TNF reporter robust z-score":1.4,"activity call":"inactive"}
{"target":"SRA1","TNF reporter robust z-score":0.56,"activity call":"inactive"}
{"target":"SRA1","TNF reporter robust z-score":0.69,"activity call":"inactive"}
{"target":"TOM1L1","TNF reporter robust z-score":4.27,"activity call":"active"}
{"target":"TOM1L1","TNF reporter robust z-score":1.14,"activity call":"inactive"}
{"target":"TOM1L1","TNF reporter robust z-score":0.16,"activity call":"inactive"}
{"target":"TOM1L1","TNF reporter robust z-score":0.5,"activity call":"inactive"}
{"target":"PRM2","TNF reporter robust z-score":0.25,"activity call":"inactive"}
{"target":"PRM2","TNF reporter robust z-score":0.11,"activity call":"inactive"}
{"target":"PRM2","TNF reporter robust z-score":-1.03,"activity call":"inactive"}
{"target":"PRM2","TNF reporter robust z-score":-0.24,"activity call":"inactive"}
{"target":"SRPK2","TNF reporter robust z-score":-0.62,"activity call":"inactive"}
{"target":"SRPK2","TNF reporter robust z-score":-0.1,"activity call":"inactive"}
{"target":"SRPK2","TNF reporter robust z-score":-1.49,"activity call":"inactive"}
{"target":"SRPK2","TNF reporter robust z-score":-1.2,"activity call":"inactive"}
{"target":"ALB","TNF reporter robust z-score":0.74,"activity call":"inactive"}
{"target":"ALB","TNF reporter robust z-score":0.67,"activity call":"inactive"}
{"target":"ALB","TNF reporter robust z-score":0.05,"activity call":"inactive"}
{"target":"ALB","TNF reporter robust z-score":0.35,"activity call":"inactive"}
{"target":"ETS2-AS1","TNF reporter robust z-score":-0.47,"activity call":"inactive"}
{"target":"ETS2-AS1","TNF reporter robust z-score":-0.9,"activity call":"inactive"}
{"target":"ETS2-AS1","TNF reporter robust z-score":-1.07,"activity call":"inactive"}

Entries above whose target name begins with S or s (8):
{"target":"SRA1","TNF reporter robust z-score":-0.12,"activity call":"inactive"}
{"target":"SRA1","TNF reporter robust z-score":1.4,"activity call":"inactive"}
{"target":"SRA1","TNF reporter robust z-score":0.56,"activity call":"inactive"}
{"target":"SRA1","TNF reporter robust z-score":0.69,"activity call":"inactive"}
{"target":"SRPK2","TNF reporter robust z-score":-0.62,"activity call":"inactive"}
{"target":"SRPK2","TNF reporter robust z-score":-0.1,"activity call":"inactive"}
{"target":"SRPK2","TNF reporter robust z-score":-1.49,"activity call":"inactive"}
{"target":"SRPK2","TNF reporter robust z-score":-1.2,"activity call":"inactive"}

Additional records:
{"target":"CAMTA1","TNF reporter robust z-score":0.63,"activity call":"inactive"}
{"target":"CAMTA1","TNF reporter robust z-score":2.15,"activity call":"inactive"}
{"target":"CAMTA1","TNF reporter robust z-score":0.36,"activity call":"inactive"}
{"target":"CAMTA1","TNF reporter robust z-score":1.06,"activity call":"inactive"}
{"target":"ARL4C","TNF reporter robust z-score":-1.28,"activity call":"inactive"}
{"target":"ARL4C","TNF reporter robust z-score":0.03,"activity call":"inactive"}
{"target":"ARL4C","TNF reporter robust z-score":-1.16,"activity call":"inactive"}
{"target":"ARL4C","TNF reporter robust z-score":0.31,"activity call":"inactive"}
{"target":"CTRC","TNF reporter robust z-score":-0.39,"activity call":"inactive"}
{"target":"CTRC","TNF reporter robust z-score":-1.27,"activity call":"inactive"}
{"target":"CTRC","TNF reporter robust z-score":0.69,"activity call":"inactive"}
{"target":"CTRC","TNF reporter robust z-score":0.79,"activity call":"inactive"}
{"target":"ARRB2","TNF reporter robust z-score":-1.61,"activity call":"active"}
{"target":"ARRB2","TNF reporter robust z-score":0.22,"activity call":"inactive"}
{"target":"ARRB2","TNF reporter robust z-score":-0.23,"activity call":"inactive"}
{"target":"ARRB2","TNF reporter robust z-score":-0.53,"activity call":"inactive"}
{"target":"CPLX3","TNF reporter robust z-score":1.05,"activity call":"inactive"}
{"target":"CPLX3","TNF reporter robust z-score":2.08,"activity call":"inactive"}
{"target":"CPLX3","TNF reporter robust z-score":2.45,"activity call":"inactive"}
{"target":"CPLX3","TNF reporter robust z-score":2.65,"activity call":"inactive"}
{"target":"PGRMC1","TNF reporter robust z-score":0.33,"activity call":"inactive"}
{"target":"PGRMC1","TNF reporter robust z-score":0.02,"activity call":"inactive"}
{"target":"PGRMC1","TNF reporter robust z-score":0.69,"activity call":"inactive"}
{"target":"PGRMC1","TNF reporter robust z-score":3.23,"activity call":"active"}
